Experimental data as given in publication PMC7694386.
These are yes or no findings as the source states them, for the method shown. Binding seen in cells or lysates may run through a third protein. A yes stands for co-enrichment or nearness to the bait. Other partners may have been found.

By UniProt entry, the sequences of proteins in these tests, tags left out.
UniProt O95817: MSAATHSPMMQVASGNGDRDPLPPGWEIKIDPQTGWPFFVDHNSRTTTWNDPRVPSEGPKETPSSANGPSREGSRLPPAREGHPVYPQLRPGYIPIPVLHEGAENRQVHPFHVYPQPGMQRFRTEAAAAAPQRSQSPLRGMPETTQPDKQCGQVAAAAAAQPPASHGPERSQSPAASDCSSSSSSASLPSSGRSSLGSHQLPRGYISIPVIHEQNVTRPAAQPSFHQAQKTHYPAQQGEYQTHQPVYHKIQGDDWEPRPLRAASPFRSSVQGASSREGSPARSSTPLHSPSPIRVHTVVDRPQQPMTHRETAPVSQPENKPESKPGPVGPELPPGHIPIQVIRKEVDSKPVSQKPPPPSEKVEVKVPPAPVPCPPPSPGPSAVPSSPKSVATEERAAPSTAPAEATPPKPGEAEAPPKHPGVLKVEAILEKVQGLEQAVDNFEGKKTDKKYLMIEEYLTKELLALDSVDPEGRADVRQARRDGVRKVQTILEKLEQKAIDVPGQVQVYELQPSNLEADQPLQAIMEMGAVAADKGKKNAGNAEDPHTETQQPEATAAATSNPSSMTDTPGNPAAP

B1: motor protein KIF4B (protein, UniProt Q2VIQ3 1-1234)
chain: MKEEVKGIPVRVALRCRPLVPKEISEGCQMCLSFVPGETQVVVGTDKSFTYDFVFDPCTEQEEVFNKAVAPLIKGIFKGYNATVLAYGQTGSGKTYSMGGAYTAEQENEPTVGIIPRVIQLLFKEIDKKSDFEFTLKVSYLEIYNEEILDLLCPSREKAQINIREDPKEGIKIVGLTEKTVLVALDTVSCLEQGNNSRTVASTAMNSQSSRSHAIFTISIEQRKKSDKNCSFRSKLHLVDLAGSERQKKTKAEGDRLKEGININRGLLCLGNVISALGDDKKGSFVPYRDSKLTRLLQDSLGGNSHTLMIACVSPADSNLEETLSTLRYADRARKIKNKPIVNIDPHTAELNHLKQQVQQLQVLLLQAHGGTLPGSINAEPSENLQSLMEKNQSLVEENEKLSRCLSKAAGQTAQMLERIILTEQVNEKLNAKLEELRQHVACKLDLQKLVETLEDQELKENVEIICNLQQLITQLSDETVACTAAAIDTAVEEEAQVETSPETSRSSDAFTTQHALHQAQMSKEVVELNNALALKEALVRKMTQNDNQLQPIQFQYQDNIKNLELEVINLQKEKEELVRELQTAKKNVNQAKLSEHRHKLLQELEGQIADLKKKLNEQSKLLKLKESTERTVSKLNQEIWMMKNQRVQLMRQMKEDAEKFRQWKQKKDKEVIQLKERDRKRQYELLKLERNFQKQSSVLRRKTEEAAAANKRLKDALQKQREVTDKRKETQSHGKEGIAARVRNWLGNEIEVMVSTEEAKRHLNDLLEDRKILAQDVVQLKEKKESRENPPPKLRKCTFSLSEVHGQVLESEDCITKQIESLETEMELRSAQIADLQQKLLDAESEDRPKQCWENIATILEAKCALKYLIGELVSSKIHVTKLENSLRQSKASCADMQKMLFEEQNHFSEIETELQAELVRMEQQHQEKVLYLVSQLQESQMAEKQLEKSASEKEQQLVSTLQCQDEELEKMREVCEQNQQLLQENEIIKQKLILLQVASRQKHLPNDTLLSPDSSFEYIPPKPKPSRVKEKFLEQSMDIEDLKYCSEHSVNEHEDGDGDGDSDEGDDEEWKPTKLVKVSRKNIQGCSCKGWCGNKQCGCRKQKSDCGVDCSCDPTKCRNRQQGKDSLGTVEQTQDSEGSFKLEDPTEVTPGLSFFNPVCATPNSKILKEMCDMEQVLSKKTAPAPSPFDLPESKHGATEYQQNKPPGKKKKRALASNTSFFSGCSPIEEEAH
B2: ARCN1/COPD (protein, UniProt P48444 1-511)
chain: MVLLAAAVCTKAGKAIVSRQFVEMTRTRIEGLLAAFPKLMNTGKQHTFVETESVRYVYQPMEKLYMVLITTKNSNILEDLETLRLFSRVIPEYCRALEENEISEHCFDLIFAFDEIVALGYRENVNLAQIRTFTEMDSHEEKVFRAVRETQEREAKAEMRRKAKELQQARRDAERQGKKAPGFGGFGSSAVSGGSTAAMITETIIETDKPKVAPAPARPSGPSKALKLGAKGKEVDNFVDKLKSEGETIMSSSMGKRTSEATKMHAPPINMESVHMKIEEKITLTCGRDGGLQNMELHGMIMLRISDDKYGRIRLHVENEDKKGVQLQTHPNVDKKLFTAESLIGLKNPEKSFPVNSDVGVLKWRLQTTEESFIPLTINCWPSESGNGCDVNIEYELQEDNLELNDVVITIPLPSGVGAPVIGEIDGEYRHDSRRNTLEWCLPVIDAKNKSGSLEFSIAGQPNDFFPVQVSFVSKKNYCNIQVTKVTQVDGNSPVRFSTETTFLVDKYEIL
B3: Kinesin-like protein KIF7 (protein, UniProt Q2M1P5 1-1343)
chain: MGLEAQRLPGAEEAPVRVALRVRPLLPKELLHGHQSCLQVEPGLGRVTLGRDRHFGFHVVLAEDAGQEAVYQACVQPLLEAFFEGFNATVFAYGQTGSGKTYTMGEASVASLLEDEQGIVPRAMAEAFKLIDENDLLDCLVHVSYLEVYKEEFRDLLEVGTASRDIQLREDERGNVVLCGVKEVDVEGLDEVLSLLEMGNAARHTGATHLNHLSSRSHTVFTVTLEQRGRAPSRLPRPAPGQLLVSKFHFVDLAGSERVLKTGSTGERLKESIQINSSLLALGNVISALGDPQRRGSHIPYRDSKITRILKDSLGGNAKTVMIACVSPSSSDFDETLNTLNYASRAQNIRNRATVNWRPEAERPPEETASGARGPPRHRSETRIIHRGRRAPGPATASAAAAMRLGAECARYRACTDAAYSLLRELQAEPGLPGAAARKVRDWLCAVEGERSALSSASGPDSGIESASVEDQAAQGAGGRKEDEGAQQLLTLQNQVARLEEENRDFLAALEDAMEQYKLQSDRLREQQEEMVELRLRLELVRPGWGGPRLLNGLPPGSFVPRPHTAPLGGAHAHVLGMVPPACLPGDEVGSEQRGEQVTNGREAGAELLTEVNRLGSGSSAASEEEEEEEEPPRRTLHLRRNRISNCSQRAGARPGSLPERKGPELCLEELDAAIPGSRAVGGSKARVQARQVPPATASEWRLAQAQQKIRELAINIRMKEELIGELVRTGKAAQALNRQHSQRIRELEQEAEQVRAELSEGQRQLRELEGKELQDAGERSRLQEFRRRVAAAQSQVQVLKEKKQATERLVSLSAQSEKRLQELERNVQLMRQQQGQLQRRLREETEQKRRLEAEMSKRQHRVKELELKHEQQQKILKIKTEEIAAFQRKRRSGSNGSVVSLEQQQKIEEQKKWLDQEMEKVLQQRRALEELGEELHKREAILAKKEALMQEKTGLESKRLRSSQALNEDIVRVSSRLEHLEKELSEKSGQLRQGSAQSQQQIRGEIDSLRQEKDSLLKQRLEIDGKLRQGSLLSPEEERTLFQLDEAIEALDAAIEYKNEAITCRQRVLRASASLLSQCEMNLMAKLSYLSSSETRALLCKYFDKVVTLREEQHQQQIAFSELEMQLEEQQRLVYWLEVALERQRLEMDRQLTLQQKEHEQNMQLLLQQSRDHLGEGLADSRRQYEARIQALEKELGRYMWINQELKQKLGGVNAVGHSRGGEKRSLCSEGRQAPGNEDELHLAPELLWLSPLTEGAPRTREETRDLVHAPLPLTWKRSSLCGEEQGSPEELRQREAAEPLVGRVLPVGEAGLPWNFGPLSKPRRELRRASPGMIDVRKNPL
B4: TTK (protein, UniProt P33981 1-857)
chain: MESEDLSGRELTIDSIMNKVRDIKNKFKNEDLTDELSLNKISADTTDNSGTVNQIMMMANNPEDWLSLLLKLEKNSVPLSDALLNKLIGRYSQAIEALPPDKYGQNESFARIQVRFAELKAIQEPDDARDYFQMARANCKKFAFVHISFAQFELSQGNVKKSKQLLQKAVERGAVPLEMLEIALRNLNLQKKQLLSEEEKKNLSASTVLTAQESFSGSLGHLQNRNNSCDSRGQTTKARFLYGENMPPQDAEIGYRNSLRQTNKTKQSCPFGRVPVNLLNSPDCDVKTDDSVVPCFMKRQTSRSECRDLVVPGSKPSGNDSCELRNLKSVQNSHFKEPLVSDEKSSELIITDSITLKNKTESSLLAKLEETKEYQEPEVPESNQKQWQSKRKSECINQNPAASSNHWQIPELARKVNTEQKHTTFEQPVFSVSKQSPPISTSKWFDPKSICKTPSSNTLDDYMSCFRTPVVKNDFPPACQLSTPYGQPACFQQQQHQILATPLQNLQVLASSSANECISVKGRIYSILKQIGSGGSSKVFQVLNEKKQIYAIKYVNLEEADNQTLDSYRNEIAYLNKLQQHSDKIIRLYDYEITDQYIYMVMECGNIDLNSWLKKKKSIDPWERKSYWKNMLEAVHTIHQHGIVHSDLKPANFLIVDGMLKLIDFGIANQMQPDTTSVVKDSQVGTVNYMPPEAIKDMSSSRENGKSKSKISPKSDVWSLGCILYYMTYGKTPFQQIINQISKLHAIIDPNHEIEFPDIPEKDLQDVLKCCLKRDPKQRISIPELLAHPYVQIQTHPVNQMAKGTTEEMKYVLGQLVGLNSPNSILKAAKTLYEHYSGGESHNSSSSKTFEKKRGKK
B5: COPB2 (protein, UniProt P35606 1-906)
chain: MPLRLDIKRKLTARSDRVKSVDLHPTEPWMLASLYNGSVCVWNHETQTLVKTFEVCDLPVRAAKFVARKNWVVTGADDMQIRVFNYNTLERVHMFEAHSDYIRCIAVHPTQPFILTSSDDMLIKLWDWDKKWSCSQVFEGHTHYVMQIVINPKDNNQFASASLDRTIKVWQLGSSSPNFTLEGHEKGVNCIDYYSGGDKPYLISGADDRLVKIWDYQNKTCVQTLEGHAQNVSCASFHPELPIIITGSEDGTVRIWHSSTYRLESTLNYGMERVWCVASLRGSNNVALGYDEGSIIVKLGREEPAMSMDANGKIIWAKHSEVQQANLKAMGDAEIKDGERLPLAVKDMGSCEIYPQTIQHNPNGRFVVVCGDGEYIIYTAMALRNKSFGSAQEFAWAHDSSEYAIRESNSIVKIFKNFKEKKSFKPDFGAESIYGGFLLGVRSVNGLAFYDWDNTELIRRIEIQPKHIFWSDSGELVCIATEESFFILKYLSEKVLAAQETHEGVTEDGIEDAFEVLGEIQEIVKTGLWVGDCFIYTSSVNRLNYYVGGEIVTIAHLDRTMYLLGYIPKDNRLYLGDKELNIISYSLLVSVLEYQTAVMRRDFSMADKVLPTIPKEQRTRVAHFLEKQGFKQQALTVSTDPEHRFELALQLGELKIAYQLAVEAESEQKWKQLAELAISKCQFGLAQECLHHAQDYGGLLLLATASGNANMVNKLAEGAERDGKNNVAFMSYFLQGKVDACLELLIRTGRLPEAAFLARTYLPSQVSRVVKLWRENLSKVNQKAAESLADPTEYENLFPGLKEAFVVEEWVKETHADLWPAKQYPLVTPNEERNVMEEGKDFQPSRSTAQQELDGKPASPTPVIVASHTANKEEKSLLELEVDLDNLELEDIDTTDINLDEDILDD
B6: CEP55 (protein, UniProt Q53EZ4 1-464)
chain: MSSRSTKDLIKSKWGSKPSNSKSETTLEKLKGEIAHLKTSVDEITSGKGKLTDKERHRLLEKIRVLEAEKEKNAYQLTEKDKEIQRLRDQLKARYSTTTLLEQLEETTREGERREQVLKALSEEKDVLKQQLSAATSRIAELESKTNTLRLSQTVAPNCFNSSINNIHEMEIQLKDALEKNQQWLVYDQQREVYVKGLLAKIFELEKKTETAAHSLPQQTKKPESEGYLQEEKQKCYNDLLASAKKDLEVERQTITQLSFELSEFRRKYEETQKEVHNLNQLLYSQRRADVQHLEDDRHKTEKIQKLREENDIARGKLEEEKKRSEELLSQVQFLYTSLLKQQEEQTRVALLEQQMQACTLDFENEKLDRQHVQHQLHVILKELRKARNQITQLESLKQLHEFAITEPLVTFQGETENREKVAASPKSPTAALNESLVECPKCNIQYPATEHRDLLVHVEYCSK

molecular target: BAG3 (BCL-2-associated athanogene 3) (human (endogenous in HEK293T)) (UniProt O95817); assay: affinity purification with mass spectrometry; endogenous BAG3 immunoprecipitated with anti-BAG3 antibody and Protein A/G magnetic beads from HEK293T lysate; cells treated with DMSO (basal) or 10 µM MG132 for 6 h; IgG IP (MG132_IgG) as control; label-free quantification, three biological replicates

binding | Binder
binds | B1
binds | B2
binds | B3
binds | B4
binds | B5
binds | B6
